From US12274681B2, “Compositions and methods for reducing skin fat” (Purdue Research Foundation, priority 2016, dated 2025)

Tested on: 3T3-L1 adipocytes
Experiment: Proteomic analysis of adipocytes by LC MS/MS
Format: cell-based, Mus musculus
Details: 10 μM
Description: 3T3-L1 preadipocytes were induced to differentiate into mature adipocytes with the same culture condition as described elsewhere. […] Avasimibe or DMSO was replaced freshly every 48 h. Each condition was cultured in triplicate. On day 6, adipocytes were washed with 1×PBS and scraped off the culture dishes. Adipocyte cell pellets were collected after centrifugation and subsequently digested with trypsin (Sigma-Aldrich, St. Louis MO, USA) at the Ratio of 1:50 (μg/μg) Trypsin to Protein. The tryptic peptides after trypsin digestion were separated on a nano LC system (1100 Series LC, Agilent Technologies, Santa Clara, CA) as described previously (D'Aquila, et al. 2015). Briefly, peptides were concentrated with Agilent 300SB-C18 enrichment column and separated with C18 reversed phase ZORBAX 300SB-C18 column. High resolution hybrid ion trap mass spectrometer LTQ-Orbitrap LX (Thermo Fisher Scientific, Waltham MA, USA) was employed to identify the peptides in the data-dependent positive acquisition mode. These experiments were done in Bindley Bioscience Center. We used the MaxQuant computational proteomics platform version 1.5.3.17 (Cox and Mann, 2008) to analyze the results from LC MS/MS analysis. The Mus musculus (24754 entries) sequence from UNIPROT retrieved on Sep. 1, 2015 and a common contaminants database were used as our reference databases. MaxQuant was set with parameters as follows: minimum peptides length was set to seven amino acids, and “Match between runs” interval was set to one minute; The FASTA databases were randomized and 1% of protein false discovery rate was allowed; With trypsin digestion, two missed cleavages were accepted; Three modifications per peptide were allowed, including one fixed modification as “Iodoethanol” and variable modifications as “Oxidation (M)” and “Acetyl (Protein N-term)”; Initial precursor was set to 0.07 and fragment mass tolerance set to 0.02 Da; Data were analyzed with “Label-free quantification” (LFQ) checked. The MaxQuant results were used in in-house script to remove all the common contaminant proteins and to calculate the average LFQ intensity values for the biological replicates and log transform [log2(x)]. The missing values were left blank unless indicated. A two tailed student t-test was performed on the LFQ intensity.

CC(C)c1cc(C(C)C)c(CC(=O)NS(=O)(=O)Oc2c(C(C)C)cccc2C(C)C)c(C(C)C)c1 [avasimibe]
number of identified proteins with decreased levels (Day 2-Day 6, of 236 proteins): 76 proteins | number of identified proteins with increased levels (Day 2-Day 6, of 236 proteins): 102 proteins | number of proteins not altered significantly (Day 2-Day 6, of 236 proteins): 58 proteins | number of proteins decreased >2-fold (filter >2-fold change): 53 proteins | number of proteins increased >2-fold (filter >2-fold change): 22 proteins
